The exact form of at least one protein or probe is not confirmed.
Experiments:
Test in all cases: SPR
Settings in all cases: intact EV as analyte (1.25-20 nM), 1:1 model; SPR (Biacore T200, SA chip): HBS-EP+ 10 mM HEPES, 150 mM NaCl, 3 mM EDTA, 0.05% P20; 30 ul/min; pH and temperature not stated; native protein; single-stranded DNA
[1] = biological target: EpCAM on intact extracellular vesicles (UniProt P16422)
[2] = biological target: MUC1 on intact extracellular vesicles (UniProt P15941)
[3] = biological target: CD63 on intact extracellular vesicles (UniProt P08962)

Chains of the proteins cited; added tags and fusions are not shown. Lines headed by an entry give the natural chain unless they say otherwise; changes in a name come on top. Residues count along the entry.
UniProt P16422, 24-314: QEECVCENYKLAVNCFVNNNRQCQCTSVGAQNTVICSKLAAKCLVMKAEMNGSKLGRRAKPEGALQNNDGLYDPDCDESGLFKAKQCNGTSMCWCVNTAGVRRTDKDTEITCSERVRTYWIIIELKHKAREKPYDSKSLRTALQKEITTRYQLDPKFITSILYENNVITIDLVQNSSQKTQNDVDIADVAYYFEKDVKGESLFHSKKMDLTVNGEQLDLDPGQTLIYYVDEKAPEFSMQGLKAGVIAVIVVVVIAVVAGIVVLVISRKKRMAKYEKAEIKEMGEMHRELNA
UniProt P15941: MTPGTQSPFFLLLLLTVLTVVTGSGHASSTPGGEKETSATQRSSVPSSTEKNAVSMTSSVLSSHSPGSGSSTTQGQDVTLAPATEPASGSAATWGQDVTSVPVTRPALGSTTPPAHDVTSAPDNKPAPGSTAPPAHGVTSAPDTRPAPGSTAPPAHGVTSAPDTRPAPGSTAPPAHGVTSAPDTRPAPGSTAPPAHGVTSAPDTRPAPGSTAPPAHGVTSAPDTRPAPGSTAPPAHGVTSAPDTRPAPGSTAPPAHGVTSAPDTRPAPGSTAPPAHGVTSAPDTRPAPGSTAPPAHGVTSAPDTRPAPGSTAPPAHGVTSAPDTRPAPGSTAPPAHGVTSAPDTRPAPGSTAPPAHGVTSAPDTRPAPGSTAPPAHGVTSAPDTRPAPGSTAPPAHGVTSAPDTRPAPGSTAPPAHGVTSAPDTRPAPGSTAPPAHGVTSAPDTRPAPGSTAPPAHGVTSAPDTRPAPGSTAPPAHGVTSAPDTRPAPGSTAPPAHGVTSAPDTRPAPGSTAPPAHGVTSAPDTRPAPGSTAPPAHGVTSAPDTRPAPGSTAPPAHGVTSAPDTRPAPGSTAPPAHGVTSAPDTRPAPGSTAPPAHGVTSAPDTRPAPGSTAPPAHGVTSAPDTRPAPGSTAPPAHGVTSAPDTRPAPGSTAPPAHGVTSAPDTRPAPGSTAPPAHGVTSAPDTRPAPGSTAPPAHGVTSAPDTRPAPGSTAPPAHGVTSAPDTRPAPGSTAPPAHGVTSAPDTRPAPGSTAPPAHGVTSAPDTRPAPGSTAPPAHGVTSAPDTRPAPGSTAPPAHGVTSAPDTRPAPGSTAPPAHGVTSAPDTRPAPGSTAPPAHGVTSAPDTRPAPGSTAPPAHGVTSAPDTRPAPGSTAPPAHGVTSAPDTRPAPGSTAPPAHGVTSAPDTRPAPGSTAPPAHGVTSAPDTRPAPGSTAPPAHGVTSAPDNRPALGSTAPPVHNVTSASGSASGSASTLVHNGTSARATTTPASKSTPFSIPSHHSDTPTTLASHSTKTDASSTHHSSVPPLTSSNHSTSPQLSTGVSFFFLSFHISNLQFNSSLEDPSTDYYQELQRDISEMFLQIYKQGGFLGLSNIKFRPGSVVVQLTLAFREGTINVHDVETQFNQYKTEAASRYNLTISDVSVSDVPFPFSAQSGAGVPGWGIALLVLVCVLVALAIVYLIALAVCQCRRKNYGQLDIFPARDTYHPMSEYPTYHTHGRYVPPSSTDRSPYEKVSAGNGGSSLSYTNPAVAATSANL
UniProt P08962, 2-238: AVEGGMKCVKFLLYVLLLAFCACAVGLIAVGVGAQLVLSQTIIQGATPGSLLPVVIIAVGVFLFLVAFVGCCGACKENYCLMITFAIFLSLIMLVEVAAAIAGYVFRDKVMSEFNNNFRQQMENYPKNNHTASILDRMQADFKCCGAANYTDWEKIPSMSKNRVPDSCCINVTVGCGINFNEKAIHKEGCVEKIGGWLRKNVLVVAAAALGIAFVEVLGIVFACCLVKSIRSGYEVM

Sequence: CACTACAGAGGTTGCGTCTGTCCCACGTTGTCATGGGGGGTTGGCCTG [aptamerEpCAM]
- Kd [1]: 0.81 nM

Sequence: GCAGTTGATCCTTTGGATACCCTGG [aptamerMUC1]
- Kd [2]: 3.86 nM

Sequence: CACCCCACCTCGCTCCCGTGACACTAATGCTA [aptamerCD63]
- Kd [3]: 1.76 nM

Source: publication PMC7710127
